23 targets from the supplement of paper PMC10849652 can be followed below.

Protein sequences, listed by entry. Tags and fused reporters are not part of them. Lines headed by an entry give the natural chain unless they say otherwise; changes in a name come on top.
UniProt Q6L8Q7: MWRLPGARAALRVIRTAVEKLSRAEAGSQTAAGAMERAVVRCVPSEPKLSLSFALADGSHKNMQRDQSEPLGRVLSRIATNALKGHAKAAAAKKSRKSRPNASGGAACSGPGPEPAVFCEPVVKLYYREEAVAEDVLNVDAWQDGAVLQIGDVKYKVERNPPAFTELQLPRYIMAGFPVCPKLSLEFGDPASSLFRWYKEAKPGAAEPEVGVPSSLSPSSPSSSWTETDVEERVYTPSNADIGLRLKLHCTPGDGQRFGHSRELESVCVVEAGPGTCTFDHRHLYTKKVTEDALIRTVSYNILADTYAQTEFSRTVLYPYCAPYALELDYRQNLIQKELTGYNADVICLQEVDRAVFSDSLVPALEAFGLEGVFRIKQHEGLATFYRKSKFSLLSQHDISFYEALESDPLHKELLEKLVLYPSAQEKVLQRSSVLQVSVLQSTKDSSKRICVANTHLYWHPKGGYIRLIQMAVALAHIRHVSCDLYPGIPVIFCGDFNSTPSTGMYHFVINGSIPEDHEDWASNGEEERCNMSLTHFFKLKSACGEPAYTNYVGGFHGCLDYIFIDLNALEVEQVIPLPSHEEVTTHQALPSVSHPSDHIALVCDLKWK
UniProt Q29RF7: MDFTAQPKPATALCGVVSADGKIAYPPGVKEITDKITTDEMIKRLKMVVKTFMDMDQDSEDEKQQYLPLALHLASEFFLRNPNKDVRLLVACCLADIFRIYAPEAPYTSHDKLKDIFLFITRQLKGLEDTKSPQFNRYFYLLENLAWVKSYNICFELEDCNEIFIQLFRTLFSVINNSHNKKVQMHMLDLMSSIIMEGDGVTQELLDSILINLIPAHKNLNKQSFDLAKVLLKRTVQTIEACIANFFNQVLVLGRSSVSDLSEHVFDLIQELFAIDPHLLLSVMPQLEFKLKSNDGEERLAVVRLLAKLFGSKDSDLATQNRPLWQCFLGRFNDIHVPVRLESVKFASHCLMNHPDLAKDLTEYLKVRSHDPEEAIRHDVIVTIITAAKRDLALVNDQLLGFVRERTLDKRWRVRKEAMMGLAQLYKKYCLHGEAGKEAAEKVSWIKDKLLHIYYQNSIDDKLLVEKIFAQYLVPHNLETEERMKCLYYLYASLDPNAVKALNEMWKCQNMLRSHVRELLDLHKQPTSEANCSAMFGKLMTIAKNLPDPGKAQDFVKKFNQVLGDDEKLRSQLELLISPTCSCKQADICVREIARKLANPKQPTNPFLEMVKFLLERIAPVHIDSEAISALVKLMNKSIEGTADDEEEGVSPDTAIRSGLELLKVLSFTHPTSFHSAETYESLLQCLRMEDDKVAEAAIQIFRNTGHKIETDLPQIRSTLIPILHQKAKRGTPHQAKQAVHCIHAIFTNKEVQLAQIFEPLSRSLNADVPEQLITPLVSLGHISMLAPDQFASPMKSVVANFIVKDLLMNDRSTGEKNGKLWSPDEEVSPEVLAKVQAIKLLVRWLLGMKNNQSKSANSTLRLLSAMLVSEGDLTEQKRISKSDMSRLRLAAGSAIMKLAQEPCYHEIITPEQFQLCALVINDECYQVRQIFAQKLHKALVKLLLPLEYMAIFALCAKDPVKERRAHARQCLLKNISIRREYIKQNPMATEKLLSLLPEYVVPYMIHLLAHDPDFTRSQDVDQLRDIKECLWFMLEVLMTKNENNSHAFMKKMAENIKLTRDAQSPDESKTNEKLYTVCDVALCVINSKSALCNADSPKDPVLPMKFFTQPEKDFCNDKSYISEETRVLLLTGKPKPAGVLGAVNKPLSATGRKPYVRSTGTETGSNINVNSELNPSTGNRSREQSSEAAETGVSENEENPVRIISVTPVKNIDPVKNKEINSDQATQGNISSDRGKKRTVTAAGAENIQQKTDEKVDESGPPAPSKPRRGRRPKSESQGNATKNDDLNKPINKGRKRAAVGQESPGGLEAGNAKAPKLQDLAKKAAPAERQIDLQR
UniProt Q9UKL6: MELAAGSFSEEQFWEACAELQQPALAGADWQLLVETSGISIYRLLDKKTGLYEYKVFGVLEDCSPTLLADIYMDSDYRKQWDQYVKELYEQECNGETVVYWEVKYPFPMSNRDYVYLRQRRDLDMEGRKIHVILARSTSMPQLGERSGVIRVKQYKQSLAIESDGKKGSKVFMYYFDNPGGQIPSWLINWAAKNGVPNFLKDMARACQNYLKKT
UniProt P08237: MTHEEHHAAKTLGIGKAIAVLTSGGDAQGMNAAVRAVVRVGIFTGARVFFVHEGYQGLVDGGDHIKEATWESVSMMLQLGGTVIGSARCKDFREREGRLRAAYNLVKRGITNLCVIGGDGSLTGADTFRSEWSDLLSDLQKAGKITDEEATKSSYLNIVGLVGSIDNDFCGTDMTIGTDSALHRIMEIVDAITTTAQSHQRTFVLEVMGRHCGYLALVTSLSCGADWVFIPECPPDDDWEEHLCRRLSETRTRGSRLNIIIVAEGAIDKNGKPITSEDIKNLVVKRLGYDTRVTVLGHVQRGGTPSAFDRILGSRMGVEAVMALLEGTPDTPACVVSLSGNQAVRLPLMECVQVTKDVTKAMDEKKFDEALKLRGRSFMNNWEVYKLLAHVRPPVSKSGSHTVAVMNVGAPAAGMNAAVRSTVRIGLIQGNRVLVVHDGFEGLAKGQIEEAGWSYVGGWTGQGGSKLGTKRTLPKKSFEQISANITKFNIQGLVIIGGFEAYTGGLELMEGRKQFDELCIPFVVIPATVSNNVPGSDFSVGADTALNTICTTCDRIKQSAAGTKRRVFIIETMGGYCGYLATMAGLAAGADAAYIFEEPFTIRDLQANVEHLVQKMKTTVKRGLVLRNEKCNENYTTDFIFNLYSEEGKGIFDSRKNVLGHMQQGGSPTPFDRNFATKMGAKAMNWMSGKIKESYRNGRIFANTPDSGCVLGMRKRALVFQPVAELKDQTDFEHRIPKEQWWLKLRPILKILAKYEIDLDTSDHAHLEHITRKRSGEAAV
UniProt Q9BUL8: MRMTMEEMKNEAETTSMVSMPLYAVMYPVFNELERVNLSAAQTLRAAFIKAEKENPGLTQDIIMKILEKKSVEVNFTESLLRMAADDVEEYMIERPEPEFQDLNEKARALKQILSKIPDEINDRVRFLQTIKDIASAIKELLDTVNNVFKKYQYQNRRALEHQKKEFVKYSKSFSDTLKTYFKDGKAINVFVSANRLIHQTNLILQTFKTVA
UniProt Q5VU43: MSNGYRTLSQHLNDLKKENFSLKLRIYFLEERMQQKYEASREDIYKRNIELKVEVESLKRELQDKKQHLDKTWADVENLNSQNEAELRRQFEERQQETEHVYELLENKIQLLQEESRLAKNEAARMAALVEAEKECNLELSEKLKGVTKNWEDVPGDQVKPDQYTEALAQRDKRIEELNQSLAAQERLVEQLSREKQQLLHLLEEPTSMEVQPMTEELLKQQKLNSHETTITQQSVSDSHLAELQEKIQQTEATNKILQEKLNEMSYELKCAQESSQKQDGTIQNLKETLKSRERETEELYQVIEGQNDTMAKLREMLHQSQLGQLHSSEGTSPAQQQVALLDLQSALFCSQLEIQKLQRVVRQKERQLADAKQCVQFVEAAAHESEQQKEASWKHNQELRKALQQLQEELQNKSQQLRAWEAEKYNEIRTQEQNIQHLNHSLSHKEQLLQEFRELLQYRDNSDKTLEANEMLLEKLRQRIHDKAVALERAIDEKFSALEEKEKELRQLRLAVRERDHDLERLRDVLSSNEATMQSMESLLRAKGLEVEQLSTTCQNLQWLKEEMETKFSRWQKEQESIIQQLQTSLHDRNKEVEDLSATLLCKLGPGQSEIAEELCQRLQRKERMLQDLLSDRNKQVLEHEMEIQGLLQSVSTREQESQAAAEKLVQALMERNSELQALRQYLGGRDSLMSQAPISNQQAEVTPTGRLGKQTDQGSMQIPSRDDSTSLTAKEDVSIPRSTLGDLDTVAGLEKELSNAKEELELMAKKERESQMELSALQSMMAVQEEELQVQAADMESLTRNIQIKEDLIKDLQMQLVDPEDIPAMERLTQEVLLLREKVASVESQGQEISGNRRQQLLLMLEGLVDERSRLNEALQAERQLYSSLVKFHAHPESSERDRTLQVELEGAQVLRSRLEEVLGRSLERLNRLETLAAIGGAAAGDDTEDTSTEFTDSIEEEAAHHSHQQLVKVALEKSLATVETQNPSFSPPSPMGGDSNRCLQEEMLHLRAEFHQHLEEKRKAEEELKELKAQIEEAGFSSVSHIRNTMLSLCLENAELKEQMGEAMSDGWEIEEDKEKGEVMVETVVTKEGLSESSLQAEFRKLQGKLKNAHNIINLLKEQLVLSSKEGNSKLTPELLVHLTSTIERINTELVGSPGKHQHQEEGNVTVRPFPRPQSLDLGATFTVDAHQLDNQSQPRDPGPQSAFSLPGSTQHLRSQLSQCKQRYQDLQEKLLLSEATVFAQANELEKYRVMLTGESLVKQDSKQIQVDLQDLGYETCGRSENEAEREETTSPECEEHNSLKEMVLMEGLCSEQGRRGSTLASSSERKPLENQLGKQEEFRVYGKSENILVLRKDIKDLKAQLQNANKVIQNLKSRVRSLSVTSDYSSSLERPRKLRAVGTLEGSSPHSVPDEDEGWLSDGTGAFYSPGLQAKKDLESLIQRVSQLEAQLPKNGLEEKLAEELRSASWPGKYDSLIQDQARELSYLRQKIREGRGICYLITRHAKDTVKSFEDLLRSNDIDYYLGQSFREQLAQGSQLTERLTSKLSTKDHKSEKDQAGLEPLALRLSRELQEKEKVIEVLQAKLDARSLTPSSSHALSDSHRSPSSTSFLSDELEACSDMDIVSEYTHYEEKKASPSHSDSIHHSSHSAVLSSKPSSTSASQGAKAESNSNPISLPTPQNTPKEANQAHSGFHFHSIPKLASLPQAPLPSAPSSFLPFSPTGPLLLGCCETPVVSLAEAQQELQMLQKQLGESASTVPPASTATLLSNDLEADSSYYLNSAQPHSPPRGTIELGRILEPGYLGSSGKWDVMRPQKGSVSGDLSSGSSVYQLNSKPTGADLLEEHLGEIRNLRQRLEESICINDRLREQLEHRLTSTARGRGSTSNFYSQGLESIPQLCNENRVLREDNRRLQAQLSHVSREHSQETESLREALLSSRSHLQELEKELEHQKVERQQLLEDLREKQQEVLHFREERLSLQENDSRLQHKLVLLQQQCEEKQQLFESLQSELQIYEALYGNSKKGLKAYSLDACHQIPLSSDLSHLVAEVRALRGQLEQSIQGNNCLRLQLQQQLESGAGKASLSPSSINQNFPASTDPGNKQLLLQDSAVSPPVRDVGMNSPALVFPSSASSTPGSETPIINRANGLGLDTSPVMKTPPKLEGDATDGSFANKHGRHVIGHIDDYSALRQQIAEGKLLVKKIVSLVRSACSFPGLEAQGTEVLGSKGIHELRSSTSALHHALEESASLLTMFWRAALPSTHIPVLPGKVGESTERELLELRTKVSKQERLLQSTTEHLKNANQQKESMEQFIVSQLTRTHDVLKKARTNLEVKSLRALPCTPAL
UniProt Q8N5Y8: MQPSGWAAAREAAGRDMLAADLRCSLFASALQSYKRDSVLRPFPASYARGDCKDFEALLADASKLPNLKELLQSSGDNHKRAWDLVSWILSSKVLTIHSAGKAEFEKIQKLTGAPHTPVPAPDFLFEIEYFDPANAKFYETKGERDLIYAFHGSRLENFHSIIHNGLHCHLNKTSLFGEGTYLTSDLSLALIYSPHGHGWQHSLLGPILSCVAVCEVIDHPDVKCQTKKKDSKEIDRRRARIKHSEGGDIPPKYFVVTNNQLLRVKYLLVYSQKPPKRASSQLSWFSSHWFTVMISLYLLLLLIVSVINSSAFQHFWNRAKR
UniProt Q8NBM8: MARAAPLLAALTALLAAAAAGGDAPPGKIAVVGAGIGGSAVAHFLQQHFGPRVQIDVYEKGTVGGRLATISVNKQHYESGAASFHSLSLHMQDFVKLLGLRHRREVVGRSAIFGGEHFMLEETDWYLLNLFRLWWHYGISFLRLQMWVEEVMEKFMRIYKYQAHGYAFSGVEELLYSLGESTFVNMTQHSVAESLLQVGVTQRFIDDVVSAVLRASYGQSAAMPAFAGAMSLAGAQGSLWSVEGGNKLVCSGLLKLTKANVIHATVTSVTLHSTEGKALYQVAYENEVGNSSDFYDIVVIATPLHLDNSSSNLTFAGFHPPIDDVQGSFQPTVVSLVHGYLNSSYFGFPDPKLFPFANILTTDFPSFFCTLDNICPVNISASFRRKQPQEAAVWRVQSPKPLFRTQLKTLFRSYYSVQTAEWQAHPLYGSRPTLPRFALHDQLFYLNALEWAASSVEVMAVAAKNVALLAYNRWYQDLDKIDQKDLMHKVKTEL
UniProt Q8WW12: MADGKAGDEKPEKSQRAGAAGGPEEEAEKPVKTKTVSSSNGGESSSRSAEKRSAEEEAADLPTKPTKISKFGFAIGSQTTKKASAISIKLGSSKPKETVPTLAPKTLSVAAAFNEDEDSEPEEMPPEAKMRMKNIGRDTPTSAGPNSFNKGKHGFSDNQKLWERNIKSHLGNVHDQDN

This is one part of the list.

Compound in this experiment: c1ccc([C@@H]2C[C@H]2NC2CCNCC2)cc1
Briefly: log2 fold change, soluble protein after heating vs DMSO (PISA); higher = thermal stabilisation; K562 lysate, 10 uM; active = over 0.2 and 3.5 SD of the protein, either way, in both replicates (recomputed). Summed up: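 Following dounce homogenisation of K562 pellets in PBS pH 7.4 with 1 mM MgCl2, crude extract at 1 mg/mL protein was incubated for 30 min with 10 μM compound. Aliquots were then heated for 3 min over 48°C-58°C and pooled, NP-40 was added to 0.5% at 4°C, and soluble protein was recovered as the supernatant at 21,000xg for 90 min. Channel-sum-equalised TMTpro 16plex LC-MS/MS quantified this protein. Each value, from duplicates, is a log-two fold change in thermal stability relative to solvent controls.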
In the case of PGAM1 (UniProt P18669), the log2 fold change was inactive: 0.014.
Next, PDE12 (UniProt Q6L8Q7): inactive: 0.044.
On to PDK1 (UniProt Q15118), for which the log2 fold change was inactive: 0.062.
Next, PCYOX1 (UniProt Q9UHG3): inactive: -0.002; PCBD2 (UniProt Q9H0N5): inactive: -0.172.
As for PDIA5 (UniProt Q14554), the log2 fold change is inactive: 0.
For the target PC (UniProt P11498), the log2 fold change was inactive: -0.016.
Next, PFKL isoform 2 (UniProt P17858): inactive: -0.005; PDS5A (UniProt Q29RF7): inactive: 0.019.
Under PCTP (UniProt Q9UKL6) stands inactive: -0.036.
PDCD5 (UniProt O14737): the log2 fold change was inactive: -0.099.
Next, PDIA3 (UniProt H7BZJ3): inactive: -0.032; PFKM isoform 3 (UniProt P08237): inactive: -0.01.
Under PDCD6IP isoform 2 (UniProt Q8WUM4) stands inactive: 0.056; under PDCD10 (UniProt Q9BUL8), inactive: -0.064.
Take PCM1 (UniProt Q15154): the log2 fold change is inactive: 0.026.
Under PDE4DIP isoform 4 (UniProt Q5VU43) stands inactive: -0.015; under PARP16 isoform 3 (UniProt Q8N5Y8), inactive: -0.048.
Regarding PCYOX1L (UniProt Q8NBM8), the log2 fold change was inactive: -0.01.
Under PDE2A (UniProt O00408) stands inactive: 0; under PCLAF (UniProt Q15004), inactive: -0.039.
Under PCNP (UniProt Q8WW12) stands inactive: -0.058.
In the case of PECAM1 (UniProt P16284), the log2 fold change is inactive: -0.067.
